Data as given in PubChem BioAssay AID1487 (National Center for Advancing Translational Sciences (NCATS), 2009).
Some of the results follow. Shown are side measurements of this screen, not its main read-out; they come without a call. The list favours compounds with an active or inconclusive main result. The note in brackets gives the kind of curve behind each potency; many fits are weak.

Assay: qHTS Assay for Modulators of Lamin A Splicing
Conditions: HeLa LMNA splicing GFP/RFP minigene ratio, 48 h
Summary of the method: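 S3 HeLa cells stably expressing lamin A-EGFP splicing minigene plus DsRed2, 600 cells/well, 48 h compound exposure at 37C. Laser-scanning cytometry; analysed as GFP (500-530 nm)/RFP (575-640 nm) total intensity ratio; 0.5% DMSO vehicle.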

[1] = measured here: GFP splicing reporter channel
[2] = measured here: RFP viability control channel

Structure (SMILES) | AC50 [1] | AC50 [2]
Cc1ccccc1N1C(=O)CN(Cc2sccc2C)C1=S | 35.5 µM [rising, single point] | 35.5 µM [rising, single point]
COc1ccc(-c2cc(C(F)F)n3ncc(C(=O)N4CCN5CCCC5C4)c3n2)cc1 (stereo unspecified) | 12.6 µM [rising, single point] | 11.2 µM [rising, partial curve]
CC(C)c1ccc(S(=O)(=O)c2cnc(SCC(=O)Nc3cccc(C(F)(F)F)c3)nc2N)cc1 | – | 14.1 µM [rising, single point]
c1nc(NC2CCNCC2)c2cc(-c3ccc4c(c3)OCO4)ccc2n1 | – | 31.6 µM [rising, single point]
Cc1ccccc1OCc1nnc(SCC(=O)N2c3ccccc3Sc3ccc(Cl)cc32)o1 | – | 0.282 µM [rising, full curve, poor fit]
COc1ccccc1CN(Cc1nc2ccccc2c(=O)[nH]1)S(=O)(=O)c1ccc(C)cc1 | 14.1 µM [rising, single point] | 20 µM [rising, single point]
C=C(C)COc1ccc2c3c(c(=O)oc2c1OCC(=C)C)CCC3 | 31.6 µM [rising, single point] | 31.6 µM [rising, single point]
CC(C)(C#N)N([O-])C=C[N+](=O)C(C)(C)C#N | 17.8 µM [rising, partial curve] | –
COc1ccc(/C=C/C(=O)c2ccc(C)c([N+](=O)[O-])c2)cc1O | 35.5 µM [falling, single point] | 35.5 µM [falling, single point]
Cc1ccc(/C=N/NC(=O)CSc2nc3ccccc3n2Cc2ccccc2)o1 | – | 4.47 µM [rising, partial curve]
CCC1=Nc2cc(C(=O)NCc3ccco3)ccc2Sc2ccccc21 | – | 5.62 µM [rising, single point]
Cc1ccccc1-c1cncnc1NCCN1CCOCC1 | 17.8 µM [falling, single point] | 25.1 µM [falling, single point]
Cc1cc(NC(=O)C2C3C(=O)N(c4cccnc4)C(C(=O)NC(C)(C)C)C34C=CC2(C)O4)no1 (stereo unspecified) | – | 1 µM [falling, partial curve]
CCOC(=O)c1ccc(N2CCN(c3cccc(Cl)c3)CC2)c(NC(=O)Nc2ccc(OC)cc2OC)c1 | 0.447 µM [falling, full curve] | –
COc1cc(/C=C/C(=O)OCC(=O)Nc2ccccc2Sc2ccc(Cl)cc2)ccc1O | 14.1 µM [rising, partial curve] | 28.2 µM [rising, partial curve]
O=C1C2CC=CCC2C(=O)N1c1ccc(OCC(O)Cn2nnc3ccccc32)cc1 (stereo unspecified) | 15.8 µM [rising, single point] | 15.8 µM [rising, single point]
O=C(Nc1ccc(Cl)cc1C(=O)Nc1ccc(Br)cn1)c1ccco1 | 7.94 µM [rising, partial curve, poor fit] | 11.2 µM [rising, single point]
COc1ccc(-c2cc(=O)oc3c(C)c(O)c(CN(C)C)cc23)cc1 | 2.51 µM [rising, partial curve, poor fit] | 2.51 µM [rising, partial curve, poor fit]
CCc1ccccc1NC(=O)c1ccc(-n2c(C)ccc2C)cc1 | – | 15.8 µM [falling, partial curve, poor fit]

Exported as tab-separated lines: part of the list above
Structure (SMILES)	AC50 [1]	AC50 [2]
CC(C)(C#N)N([O-])C=C[N+](=O)C(C)(C)C#N	17.8 µM [rising, partial curve]	–
COc1ccc(/C=C/C(=O)c2ccc(C)c([N+](=O)[O-])c2)cc1O	35.5 µM [falling, single point]	35.5 µM [falling, single point]

(cont.)

Structure (SMILES) | AC50 [1] | AC50 [2]
COC(=O)c1ccc(CN2CCN(CCC(C)C)C(CCO)C2)cc1 (stereo unspecified) | – | 0.0251 µM [falling, full curve, poor fit]
COc1ccc2nc(-c3ccc(N)cc3)[nH]c2c1 | – | 25.1 µM [rising, single point]
O=C(CN1CCN(c2ccccc2)CC1)Nc1ccc(Oc2ccccc2)cc1 | 35.5 µM [rising, single point] | 31.6 µM [rising, single point]
CC(C)(C)c1ccc(OCCn2ccccc2=O)cc1 | 7.08 µM [rising, partial curve] | 10 µM [rising, partial curve]
O=C(CN1CCOCC1)Nc1cc(Cl)ccc1Cl | 10 µM [rising, single point] | –
CCCCCCCC1=Cc2ccc(F)cc2C(C(C(=O)OC)C(=O)OC)N1C(=O)OC (stereo unspecified) | – | 0.00126 µM [falling, full curve, poor fit]
CCc1ccc(NC(=S)N2CCN(c3cccc(OC)c3)CC2)cc1 | – | 0.0398 µM [rising, full curve, poor fit]
COC(=O)c1ccc(CSc2nnc(Nc3ccccc3OC)s2)o1 | – | 0.0891 µM [rising, single point]
O=C(NCc1ccc(-c2nc3ccccc3s2)cc1)c1ccco1 | – | 12.6 µM [rising, single point]
O=C(COc1ncnc2scc(-c3ccc(Cl)cc3)c12)NCc1ccco1 | 8.91 µM [rising, partial curve, poor fit] | 12.6 µM [rising, partial curve]
COc1cc(/C=N/O)cc(Br)c1OS(=O)(=O)c1ccc(C)cc1 | – | 31.6 µM [rising, single point]
NNC(=O)CSCc1nc(-c2ccc(Cl)cc2)cs1 | – | 1 µM [falling, full curve, poor fit]
Cc1cccc(NC(=S)N=Nc2c(O)n(CN3CCOCC3)c3ccccc23)c1C | – | 17.8 µM [rising, partial curve]
Cc1nc(-c2ccc(Cl)cc2)sc1CCNC(=O)c1ccc(C(F)(F)F)cc1 | 20 µM [rising, single point] | –
C[C@@H](C(=O)Nc1ccc2ccccc2c1)[C@H]1C[C@]1(C)[C@H](NC(=O)OCc1ccccc1)c1ccccc1 | 22.4 µM [rising, partial curve, poor fit] | 20 µM [rising, partial curve]
OC(CNCCC1C=Nc2ccccc21)Cn1c2ccc(Cl)cc2c2cc(Cl)ccc21 (stereo unspecified) | 35.5 µM [falling, single point] | 25.1 µM [falling, partial curve]
O=C(/C=C/c1ccccc1Cl)c1ccccc(=O)c1O | 3.98 µM [rising, single point] | –
CC(C)Cn1c(N)c(C(=O)COC(=O)c2c(F)cccc2F)c(=O)n(C)c1=O | – | 0.0251 µM [falling, full curve, poor fit]
Nc1cc(=O)[nH]c(SCc2ccc(Cl)cc2)n1 | – | 14.1 µM [rising, single point]

Structure (SMILES) | AC50 [1] | AC50 [2]
Cn1c(CN2CCN(C(=O)c3ccccc3Cl)CC2)nc2cc([N+](=O)[O-])ccc21 | – | 14.1 µM [rising, single point]
Nc1ccc(-c2cc(-c3cccc(N)c3)nc(-c3ccccc3)n2)cc1 | – | 35.5 µM [falling, single point]
Cc1ccc(S(=O)(=O)N(C)Cc2nc(-c3ccncc3)no2)cc1 | – | 20 µM [rising, single point]
Cn1c(=O)c2c(nc(NCc3ccccc3)n2CCCc2ccccc2)n(C)c1=O | – | 11.2 µM [rising, single point]
O=C(Nc1nnc(Cc2ccccc2)s1)c1cccnc1 | – | 12.6 µM [falling, partial curve, poor fit]
O=C(C[n+]1cc(-c2ccccc2)n2c1CCCCC2)c1ccc(Cl)cc1 | – | 15.8 µM [rising, single point]
O=S(=O)(c1ccccc1)N1CCCC1c1cccs1 (stereo unspecified) | – | 6.31 µM [falling, full curve, poor fit]
COC(=O)c1[nH]c2ccccc2c1NC(=O)CN1CCN(C/C=C/c2ccccc2)CC1 | – | 0.355 µM [falling, full curve]
COc1ccccc1CNC(=O)C1CC(c2ccc([N+](=O)[O-])cc2)=NO1 (stereo unspecified) | 31.6 µM [rising, single point] | 35.5 µM [rising, single point]
O=C1/C(=C/c2cccnc2)CCC/C1=C\c1cccnc1 | 25.1 µM [rising, single point] | –
Cc1cc2ccccc2n1CCNC(=O)c1ccc(S(=O)(=O)N2CCCCC2)cc1 | – | 10 µM [rising, partial curve, poor fit]
O=C(CSCc1nc2ccccc2[nH]1)N1CCN(c2ccc(F)cc2)CC1 | 3.98 µM [rising, full curve, poor fit] | 6.31 µM [rising, full curve]
NNC(=O)c1ccc2[nH]c3c(c2c1)CCCC3 | – | 3.98 µM [rising, single point]
COC(=O)C1(C)CN(S(=O)(=O)c2ccc(C)cc2)c2cc(OC)ccc2C1=O (stereo unspecified) | 14.1 µM [rising, partial curve, poor fit] | 35.5 µM [rising, single point]
O=C(Nc1ccc2c(c1)OCCO2)c1cccc2nc3ccccc3nc12 | 2.51 µM [rising, partial curve] | –
Cc1ccc(NC(=O)Nc2ccc(C(=O)N3CCOCC3)cc2)cc1 | – | 22.4 µM [rising, single point]
Cc1cccc(NCc2cc(Cl)cc(Cl)c2O)n1 | 35.5 µM [rising, single point] | 35.5 µM [rising, single point]
O=C(Nc1ccc2nc(SCC(=O)N3CCCC3)sc2c1)c1ccc(Br)cc1 | 4.47 µM [falling, full curve, poor fit] | 3.98 µM [falling, full curve, poor fit]
